From the supplement of paper PMC3682954
Several values for one entry are separate records, joined by “and”; a condition that tells them apart may be missing. Equal values may be shown once. Where a name gives a salt, the structure may show the parent alone. ± gives the standard deviation of the averaged measurements. The list shows a part of the results. Single values are uncertain, as repeats are few or missing.

Tested on: RAW 264.7
Assay: HMGB1-induced TNF-alpha production relative to HMGB1-stimulated control; higher = more TNF-alpha secretion (less inhibition)
Settings: stimulus: HMGB1 5 ug/ml, 18 h
[1] = compound concentration: 1 ug/ml

Row | SMILES | HMGB1-induced TNF-alpha production (compound concentration: 3 uM) | HMGB1-induced TNF-alpha production [1]
1 | NC1(C(=O)O)CCCCC1 [1-Amino-1-cyclohexanecarboxylic acid hydrochloride] | 87.4% | –
2 | NNCCc1ccccc1 | 96.5% and 102% | –
3 | NNCCc1ccccc1 [Phenelzine sulfate] | 121 ± 7.3% | –
4 | C[C@H]1O[C@H](O[C@H]2[C@H](O)[C@@H](O)[C@@H](O[C@H]3[C@H](O)[C@@H](O)C(O)O[C@@H]3CO)O[C@@H]2CO)[C@H](O)[C@@H](O)[C@@H]1N[C@H]1C=C(CO)[C@@H](O)[C@H](O)[C@H]1O (stereo partly specified) [Acarbose] | 117% | –
5 | C[C@H]1O[C@H](O[C@H]2[C@H](O)[C@@H](O)[C@@H](O[C@H]3[C@H](O)[C@@H](O)C(O)O[C@@H]3CO)O[C@@H]2CO)[C@H](O)[C@@H](O)[C@@H]1N[C@H]1C=C(CO)[C@@H](O)[C@H](O)[C@H]1O (stereo partly specified) | 92.4 ± 3.1% | –
6 | CC(C)(C=O)Cc1cc(C(C)(C)C)c(O)c(C(C)(C)C)c1 | 76.2% | –
7 | CC(C)(CO)[C@@H](O)C(=O)NCCC(=O)NCCSSCCNC(=O)CCNC(=O)[C@H](O)C(C)(C)CO | 75% | –
8 | CN1CCN(CC/C=C2/c3ccccc3Sc3ccc(S(=O)(=O)N(C)C)cc32)CC1 | 85.2% | –
9 | CN1CCC(=C2c3ccccc3C=Cc3ccccc32)CC1 [Cyproheptadine hydrochloride] | 78.8 ± 9.1% | –
10 | CN1CCC(=C2c3ccccc3C=Cc3ccccc32)CC1 [Cyproheptadine] | 85% | –
11 | CN1CCC(=C2c3ccccc3C=Cc3ccccc32)CC1 | 89.4 ± 27% | –
12 | NCC(O)C1CCCCCCC1 (stereo unspecified) [2-Cyclooctyl-2-hydroxyethylamine hydrochloride] | 82.1% | –
13 | CC(C)(C)NC[C@@H](O)COc1cccc2c1CCCC2=O [(+) -Levobunolol hydrochloride] | 97.2% | –
14 | CO[C@H]1/C=C/O[C@@]2(C)Oc3c(C)c(O)c4c(O)c(c(/C=N/N5CCN(C6CCCC6)CC5)c(O)c4c3C2=O)NC(=O)/C(C)=C\C=C\[C@H](C)[C@H](O)[C@@H](C)[C@@H](O)[C@@H](C)[C@H](OC(C)=O)[C@@H]1C | 91.4% | –
15 | CO[C@H]1/C=C/O[C@@]2(C)Oc3c(C)c(O)c4c(O)c(c(/C=N/N5CCN(C6CCCC6)CC5)c(O)c4c3C2=O)NC(=O)/C(C)=C\C=C\[C@H](C)[C@H](O)[C@@H](C)[C@@H](O)[C@@H](C)[C@H](OC(C)=O)[C@@H]1C [Rifapentine] | 69.4% | –
16 | N=C(N)NC(=N)NCCc1ccccc1 | 107% | –
17 | N=C(N)NC(=N)NCCc1ccccc1 [Phenformin hydrochloride] | 87.1% | –
18 | CC(=O)OCC(=O)[C@@]1(O)[C@@H](C)C[C@H]2[C@@H]3CCC4=CC(=O)C=C[C@]4(C)[C@@]3(F)[C@@H](O)C[C@@]21C | 33.7% | –
19 | C[C@@H]1C[C@H]2[C@@H]3C[C@H](F)C4=CC(=O)C=C[C@]4(C)[C@@]3(F)[C@@H](O)C[C@]2(C)[C@@]1(O)C(=O)CO [Flumethasone] | 37% | –
20 | C[C@@H]1C[C@H]2[C@@H]3C[C@H](F)C4=CC(=O)C=C[C@]4(C)[C@@]3(F)[C@@H](O)C[C@]2(C)[C@@]1(O)C(=O)CO | 31.3% | –
21 | O=C(O)Cc1ccc(-c2ccccc2)cc1 [Felbinac] | 106% | –
22 | O=C(O)c1cn(-c2ccc(F)cc2)c2cc(N3CCNCC3)c(F)cc2c1=O [Sarafloxacin] | 104 ± 8.4% | –
23 | O=C(O)c1cn(-c2ccc(F)cc2)c2cc(N3CCNCC3)c(F)cc2c1=O | 102% | –
24 | CC[C@H](/C=C/[C@@H](C)[C@H]1CC[C@H]2[C@@H]3CC=C4C[C@@H](O)CC[C@]4(C)[C@H]3CC[C@]12C)C(C)C [Stigmasterol] | – | 79.7%
25 | C[N+]1(C)CCC(OC(=O)C(O)(c2ccccc2)C2CCCC2)C1 (stereo unspecified) [Glycopyrrolate] | 103% | –
26 | C[N+]1(C)CCC(OC(=O)C(O)(c2ccccc2)C2CCCC2)C1 (stereo unspecified) | 95 ± 21% | –

Row | SMILES | HMGB1-induced TNF-alpha production (compound concentration: 3 uM) | HMGB1-induced TNF-alpha production [1]
27 | Clc1ccc(CCC(Cn2ccnc2)Sc2c(Cl)cccc2Cl)cc1 (stereo unspecified) [Butoconazole nitrate] | 72.7% | –
28 | N#Cc1ccc(C(c2ccc(C#N)cc2)n2cncn2)cc1 [Letrozole] | 95.8 ± 9.1% | –
29 | N#Cc1ccc(C(c2ccc(C#N)cc2)n2cncn2)cc1 | 103% | –
30 | COc1c2occc2cc2ccc(=O)oc12 [8-Methoxypsoralen] | – | 72.3%
31 | COc1c2occc2cc2ccc(=O)oc12 | 95.7% | –
32 | N=C(NCCCCCCNC(=N)NC(=N)Nc1ccc(Cl)cc1)NC(=N)Nc1ccc(Cl)cc1 [Chlorhexidine] | 60% | –
33 | N=C(NCCCCCCNC(=N)NC(=N)Nc1ccc(Cl)cc1)NC(=N)Nc1ccc(Cl)cc1 | 107 ± 12% | –
34 | NCc1ccccc1CC(=O)N[C@@H]1C(=O)N2C(C(=O)O)=C(CSc3nnnn3CC(=O)O)CS[C@H]12 [Ceforanide] | 74.6% | –
35 | CN1CCN(C2=Nc3ccccc3Oc3ccc(Cl)cc32)CC1 [Loxapine succinate] | 85.7 ± 6.3% | –
36 | CN1CCN(C2=Nc3ccccc3Oc3ccc(Cl)cc32)CC1 | 107.2 ± 0.92% | –
37 | Oc1ccc2ccccc2c1 [beta-NAPHTHOL] | 98.6% | –
38 | C[N+]1(C)CCC(OC(=O)C(c2ccccc2)c2ccccc2)CC1 [4-DAMP methiodide] | 99.9% | –
39 | Oc1cc(O)c2c(c1)O[C@H](c1ccc(O)c(O)c1)[C@@H](O)C2 [(+)-Catechin Hydrate] | 83% | –
40 | Oc1cc(O)c2c(c1)O[C@H](c1ccc(O)c(O)c1)[C@@H](O)C2 | 89.4% | –
41 | Cc1[nH]ccc2c1[nH]c1cc(=O)ccc12 [Harmol hydrochloride monohydrate] | 107% | –
42 | Cc1[nH]ccc2c1[nH]c1cc(=O)ccc12 [Harmol hydrochloride dihydrate] | – | 74.5%
43 | CC(=O)Oc1ccccc1C(=O)Nc1ncc([N+](=O)[O-])s1 | 107% | –
44 | CNCCc1c2cc(O)ccc2n2oc(=O)c(=O)oc12 [N-Methylserotonin oxalate] | – | 71.2%
45 | CCN(CC)CCOC(=O)C1(C2CCCCC2)CCCCC1 [Dicyclomine hydrochloride] | 67 ± 12% | –
46 | CCN(CC)CCOC(=O)C1(C2CCCCC2)CCCCC1 | 75.4% | –
47 | O=C1CC(c2ccccc2O)Oc2ccc(O)cc21 (stereo unspecified) [2',6-Dihydroxyflavanone] | – | 64.4%
48 | Cc1c(-c2ccccc2)oc2cc(O)ccc2c1=O | – | 64.8%
49 | CC(N/C(=N\C#N)Nc1ccncc1)C(C)(C)C (stereo unspecified) [Pinacidil] | 90.2 ± 4.4% | –
50 | CC(N/C(=N\C#N)Nc1ccncc1)C(C)(C)C (stereo unspecified) | 93% | –
51 | CC(N/C(=N\C#N)Nc1ccncc1)C(C)(C)C (stereo unspecified) [Pinacidil monohydrate] | 106% | –

Record cards, from the list above.
N=C(NCCCCCCNC(=N)NC(=N)Nc1ccc(Cl)cc1)NC(=N)Nc1ccc(Cl)cc1 [Chlorhexidine] in the list: HMGB1-induced TNF-alpha production (compound concentration: 3 uM): 60%
Oc1ccc2ccccc2c1 [beta-NAPHTHOL] in the list: HMGB1-induced TNF-alpha production (compound concentration: 3 uM): 98.6%
CCN(CC)CCOC(=O)C1(C2CCCCC2)CCCCC1 in the list: HMGB1-induced TNF-alpha production (compound concentration: 3 uM): 75.4%
